# Data: the supplement of paper PMC7666118
# Chains of the proteins cited; added tags and fusions are not shown. Lines headed by an entry give the natural chain unless they say otherwise; changes in a name come on top.
# UniProt P98170, whole entry: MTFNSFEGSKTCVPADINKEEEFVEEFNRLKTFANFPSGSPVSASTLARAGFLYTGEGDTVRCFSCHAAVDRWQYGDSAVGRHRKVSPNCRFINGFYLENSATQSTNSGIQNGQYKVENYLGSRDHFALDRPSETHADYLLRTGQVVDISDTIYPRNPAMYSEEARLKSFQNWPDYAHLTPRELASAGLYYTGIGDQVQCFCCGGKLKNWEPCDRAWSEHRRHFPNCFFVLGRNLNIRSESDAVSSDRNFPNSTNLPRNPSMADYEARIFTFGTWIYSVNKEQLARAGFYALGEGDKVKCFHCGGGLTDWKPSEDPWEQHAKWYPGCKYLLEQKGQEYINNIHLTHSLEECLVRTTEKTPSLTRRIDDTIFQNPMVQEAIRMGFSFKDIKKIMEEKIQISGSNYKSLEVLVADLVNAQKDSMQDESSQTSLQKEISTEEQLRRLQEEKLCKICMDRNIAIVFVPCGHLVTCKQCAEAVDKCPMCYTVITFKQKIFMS
# UniProt P51811: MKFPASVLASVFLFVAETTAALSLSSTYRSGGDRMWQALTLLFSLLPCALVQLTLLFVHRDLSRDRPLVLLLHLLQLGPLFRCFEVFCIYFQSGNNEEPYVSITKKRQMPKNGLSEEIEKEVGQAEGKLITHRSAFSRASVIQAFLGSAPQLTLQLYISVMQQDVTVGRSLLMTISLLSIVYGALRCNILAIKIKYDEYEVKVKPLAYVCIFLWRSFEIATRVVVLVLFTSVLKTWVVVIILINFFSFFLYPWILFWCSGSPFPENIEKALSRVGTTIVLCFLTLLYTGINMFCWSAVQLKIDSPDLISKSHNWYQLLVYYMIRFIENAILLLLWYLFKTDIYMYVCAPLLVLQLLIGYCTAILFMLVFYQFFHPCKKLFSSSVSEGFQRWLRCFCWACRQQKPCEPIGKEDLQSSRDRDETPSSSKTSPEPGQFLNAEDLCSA
# UniProt Q9UPT8: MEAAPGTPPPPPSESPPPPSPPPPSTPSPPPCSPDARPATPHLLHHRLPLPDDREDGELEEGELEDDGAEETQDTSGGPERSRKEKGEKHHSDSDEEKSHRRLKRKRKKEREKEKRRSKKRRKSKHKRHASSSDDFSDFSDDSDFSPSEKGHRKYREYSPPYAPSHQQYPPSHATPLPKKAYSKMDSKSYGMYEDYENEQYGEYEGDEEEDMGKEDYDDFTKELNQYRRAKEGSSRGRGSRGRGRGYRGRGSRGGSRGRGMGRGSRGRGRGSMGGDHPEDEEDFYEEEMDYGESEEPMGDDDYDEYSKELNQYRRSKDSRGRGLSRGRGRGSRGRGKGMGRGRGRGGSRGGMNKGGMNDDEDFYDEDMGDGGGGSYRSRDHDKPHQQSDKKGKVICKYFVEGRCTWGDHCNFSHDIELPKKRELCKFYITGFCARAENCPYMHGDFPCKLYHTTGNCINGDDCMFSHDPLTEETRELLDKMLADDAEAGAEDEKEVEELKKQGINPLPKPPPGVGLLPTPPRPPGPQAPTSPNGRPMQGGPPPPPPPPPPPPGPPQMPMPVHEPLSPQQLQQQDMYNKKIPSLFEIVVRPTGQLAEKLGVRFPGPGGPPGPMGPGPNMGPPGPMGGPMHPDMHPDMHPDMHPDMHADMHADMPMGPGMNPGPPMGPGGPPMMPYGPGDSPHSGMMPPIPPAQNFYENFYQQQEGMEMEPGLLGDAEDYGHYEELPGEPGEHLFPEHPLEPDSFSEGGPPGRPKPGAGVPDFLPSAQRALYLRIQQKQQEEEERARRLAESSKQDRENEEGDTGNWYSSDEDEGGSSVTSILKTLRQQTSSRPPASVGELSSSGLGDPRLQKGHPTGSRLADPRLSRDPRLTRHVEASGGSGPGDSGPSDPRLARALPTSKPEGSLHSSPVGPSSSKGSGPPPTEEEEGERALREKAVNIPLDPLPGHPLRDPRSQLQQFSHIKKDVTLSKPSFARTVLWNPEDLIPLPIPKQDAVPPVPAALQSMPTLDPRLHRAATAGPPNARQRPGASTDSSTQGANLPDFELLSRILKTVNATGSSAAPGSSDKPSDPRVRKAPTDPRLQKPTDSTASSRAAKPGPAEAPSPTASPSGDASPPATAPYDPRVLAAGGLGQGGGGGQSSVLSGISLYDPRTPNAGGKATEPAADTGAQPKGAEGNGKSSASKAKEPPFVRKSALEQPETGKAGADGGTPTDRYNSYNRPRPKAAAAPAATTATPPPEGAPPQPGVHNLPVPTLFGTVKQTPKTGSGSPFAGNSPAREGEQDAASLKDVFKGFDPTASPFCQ
# UniProt O94967: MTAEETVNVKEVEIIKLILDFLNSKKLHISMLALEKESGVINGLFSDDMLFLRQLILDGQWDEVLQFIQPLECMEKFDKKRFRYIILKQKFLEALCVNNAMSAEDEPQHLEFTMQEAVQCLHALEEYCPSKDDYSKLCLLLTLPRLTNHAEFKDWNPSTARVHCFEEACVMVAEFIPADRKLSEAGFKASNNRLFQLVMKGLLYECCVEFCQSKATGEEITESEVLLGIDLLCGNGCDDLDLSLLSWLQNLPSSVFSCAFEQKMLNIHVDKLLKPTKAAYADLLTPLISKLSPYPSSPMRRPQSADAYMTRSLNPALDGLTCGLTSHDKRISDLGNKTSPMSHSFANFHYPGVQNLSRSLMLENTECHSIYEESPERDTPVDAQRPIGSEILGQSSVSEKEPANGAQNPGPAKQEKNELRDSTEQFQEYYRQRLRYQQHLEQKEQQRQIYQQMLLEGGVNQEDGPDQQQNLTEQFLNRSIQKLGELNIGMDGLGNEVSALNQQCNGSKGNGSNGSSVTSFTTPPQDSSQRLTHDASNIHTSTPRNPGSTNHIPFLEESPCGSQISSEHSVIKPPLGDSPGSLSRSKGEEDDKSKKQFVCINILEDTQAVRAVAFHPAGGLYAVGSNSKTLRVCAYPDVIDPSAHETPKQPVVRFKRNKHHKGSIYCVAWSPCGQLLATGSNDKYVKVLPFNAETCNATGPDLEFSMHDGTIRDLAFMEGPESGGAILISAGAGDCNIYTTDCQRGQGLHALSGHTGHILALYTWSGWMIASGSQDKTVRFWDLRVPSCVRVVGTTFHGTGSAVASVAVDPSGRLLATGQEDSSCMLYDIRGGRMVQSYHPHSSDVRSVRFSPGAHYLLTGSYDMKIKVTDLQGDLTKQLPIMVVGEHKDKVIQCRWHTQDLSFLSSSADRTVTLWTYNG
# UniProt O95365: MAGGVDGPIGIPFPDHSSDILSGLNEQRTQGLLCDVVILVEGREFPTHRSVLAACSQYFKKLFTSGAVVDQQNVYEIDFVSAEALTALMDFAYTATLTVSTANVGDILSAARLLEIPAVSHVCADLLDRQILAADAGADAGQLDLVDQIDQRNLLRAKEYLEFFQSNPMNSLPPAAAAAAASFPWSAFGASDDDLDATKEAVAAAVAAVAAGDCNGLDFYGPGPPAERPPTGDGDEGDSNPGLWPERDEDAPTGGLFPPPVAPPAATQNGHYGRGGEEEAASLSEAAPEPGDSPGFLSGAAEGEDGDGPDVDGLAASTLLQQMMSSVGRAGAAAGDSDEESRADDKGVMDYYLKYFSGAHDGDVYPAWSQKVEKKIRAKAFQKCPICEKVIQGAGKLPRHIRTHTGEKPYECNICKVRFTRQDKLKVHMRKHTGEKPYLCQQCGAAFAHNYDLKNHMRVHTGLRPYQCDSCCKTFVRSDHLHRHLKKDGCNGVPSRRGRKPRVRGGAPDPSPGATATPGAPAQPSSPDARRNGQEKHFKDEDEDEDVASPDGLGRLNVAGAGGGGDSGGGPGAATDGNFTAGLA
# UniProt Q7Z2W4: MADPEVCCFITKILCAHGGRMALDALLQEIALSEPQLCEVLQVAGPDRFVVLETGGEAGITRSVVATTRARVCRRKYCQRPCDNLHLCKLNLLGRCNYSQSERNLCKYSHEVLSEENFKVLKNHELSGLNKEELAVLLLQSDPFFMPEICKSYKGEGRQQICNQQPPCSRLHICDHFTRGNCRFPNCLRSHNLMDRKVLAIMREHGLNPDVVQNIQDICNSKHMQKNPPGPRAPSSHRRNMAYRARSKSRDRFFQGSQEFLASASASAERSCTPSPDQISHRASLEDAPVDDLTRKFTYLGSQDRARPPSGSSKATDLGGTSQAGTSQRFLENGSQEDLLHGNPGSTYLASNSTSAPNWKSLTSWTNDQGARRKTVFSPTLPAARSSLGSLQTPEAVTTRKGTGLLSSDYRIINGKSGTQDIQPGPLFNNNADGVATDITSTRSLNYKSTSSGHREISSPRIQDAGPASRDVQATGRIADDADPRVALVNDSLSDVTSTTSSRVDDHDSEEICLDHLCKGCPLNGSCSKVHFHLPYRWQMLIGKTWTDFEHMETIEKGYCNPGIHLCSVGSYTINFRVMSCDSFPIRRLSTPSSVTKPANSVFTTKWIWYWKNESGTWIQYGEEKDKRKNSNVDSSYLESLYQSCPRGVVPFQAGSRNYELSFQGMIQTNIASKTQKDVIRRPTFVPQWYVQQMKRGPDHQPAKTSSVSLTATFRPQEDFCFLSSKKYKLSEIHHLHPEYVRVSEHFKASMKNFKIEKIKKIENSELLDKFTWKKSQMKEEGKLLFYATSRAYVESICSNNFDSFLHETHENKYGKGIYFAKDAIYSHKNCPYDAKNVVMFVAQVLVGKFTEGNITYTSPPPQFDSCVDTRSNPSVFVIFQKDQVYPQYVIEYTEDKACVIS
# UniProt Q5BKZ1: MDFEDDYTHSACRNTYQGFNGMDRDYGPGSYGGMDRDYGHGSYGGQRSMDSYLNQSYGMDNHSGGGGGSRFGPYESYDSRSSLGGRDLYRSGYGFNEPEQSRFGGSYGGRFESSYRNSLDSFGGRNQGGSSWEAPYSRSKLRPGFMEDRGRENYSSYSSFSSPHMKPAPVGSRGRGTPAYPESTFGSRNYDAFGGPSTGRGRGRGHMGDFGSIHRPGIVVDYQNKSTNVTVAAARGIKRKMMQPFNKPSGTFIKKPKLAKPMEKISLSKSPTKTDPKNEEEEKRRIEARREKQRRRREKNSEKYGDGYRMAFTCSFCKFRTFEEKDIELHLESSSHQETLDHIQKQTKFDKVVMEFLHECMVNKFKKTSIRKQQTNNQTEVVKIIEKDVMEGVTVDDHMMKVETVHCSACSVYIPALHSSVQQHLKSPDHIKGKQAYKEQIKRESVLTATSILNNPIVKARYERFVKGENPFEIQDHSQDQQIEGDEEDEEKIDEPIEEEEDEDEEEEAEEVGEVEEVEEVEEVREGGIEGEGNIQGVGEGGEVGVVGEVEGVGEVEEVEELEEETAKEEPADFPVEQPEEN
# UniProt Q8NDX6: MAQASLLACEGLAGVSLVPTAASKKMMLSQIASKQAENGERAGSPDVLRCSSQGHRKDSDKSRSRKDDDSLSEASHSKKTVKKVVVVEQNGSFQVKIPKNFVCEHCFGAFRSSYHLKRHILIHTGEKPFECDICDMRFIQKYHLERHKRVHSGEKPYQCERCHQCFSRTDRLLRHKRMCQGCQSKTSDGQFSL
# UniProt P37275: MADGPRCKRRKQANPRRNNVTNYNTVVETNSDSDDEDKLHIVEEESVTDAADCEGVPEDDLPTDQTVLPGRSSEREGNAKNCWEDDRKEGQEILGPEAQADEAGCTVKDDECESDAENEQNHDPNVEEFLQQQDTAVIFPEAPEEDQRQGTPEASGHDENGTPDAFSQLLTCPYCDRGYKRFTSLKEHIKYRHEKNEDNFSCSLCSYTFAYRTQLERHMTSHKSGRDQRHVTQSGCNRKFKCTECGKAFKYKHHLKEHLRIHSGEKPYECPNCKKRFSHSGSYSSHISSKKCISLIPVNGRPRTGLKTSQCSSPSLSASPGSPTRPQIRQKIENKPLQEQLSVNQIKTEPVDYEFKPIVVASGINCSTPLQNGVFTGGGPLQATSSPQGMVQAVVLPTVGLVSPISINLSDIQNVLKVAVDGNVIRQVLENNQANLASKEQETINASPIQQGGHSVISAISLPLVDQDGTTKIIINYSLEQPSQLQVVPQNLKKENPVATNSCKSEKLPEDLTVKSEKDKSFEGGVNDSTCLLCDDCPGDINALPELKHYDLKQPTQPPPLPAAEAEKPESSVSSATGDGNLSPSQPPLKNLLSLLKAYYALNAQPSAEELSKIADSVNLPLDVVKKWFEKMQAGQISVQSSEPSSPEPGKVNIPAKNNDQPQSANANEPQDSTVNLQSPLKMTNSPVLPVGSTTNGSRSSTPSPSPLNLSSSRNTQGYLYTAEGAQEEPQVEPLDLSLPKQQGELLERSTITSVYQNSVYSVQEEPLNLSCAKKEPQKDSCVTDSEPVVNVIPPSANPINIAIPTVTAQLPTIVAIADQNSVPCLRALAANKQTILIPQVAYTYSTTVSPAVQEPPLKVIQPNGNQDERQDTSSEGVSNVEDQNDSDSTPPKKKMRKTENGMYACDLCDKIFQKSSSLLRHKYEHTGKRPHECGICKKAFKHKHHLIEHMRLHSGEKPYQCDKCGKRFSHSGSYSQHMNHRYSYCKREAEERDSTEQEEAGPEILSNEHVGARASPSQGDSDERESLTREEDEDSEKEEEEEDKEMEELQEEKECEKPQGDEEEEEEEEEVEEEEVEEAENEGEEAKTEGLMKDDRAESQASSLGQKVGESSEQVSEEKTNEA
# Some of the results follow.
# Compound: COc1ccc(Cn2ccc3cc(C)c(C(=O)NO)cc32)cc1
# Experiment: dose-dependent thermal stabilisation call (2D-TPP, DLPTP, 10% FDR) (binary (1 = stabilised)); higher = stabilised by the compound
# Conditions: system: HL-60 intact cells; concentration range 0.04-10 µM
# Protocol: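 2D thermal proteome profiling in intact HL-60 cells treated with BRD-3811 (0, 0.04, 0.29, 2, 10 uM) for 90 min at 37 C, then heated 3 min at one of 12 temperatures (42-63.9 C). Soluble protein was quantified by TMT10 MS. The value is the DLPTP call of the paper: dose-dependent thermal stabilisation over all temperatures at 10% FDR (F-test of a dose-response against a flat model); one experiment, one call per tested protein.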
row,Target,dose-dependent thermal stabilisation call
1,ZRANB2 (UniProt O95218),inactive: 0
2,XIAP (UniProt P98170),inactive: 0
3,ZNF672 (UniProt Q499Z4),inactive: 0
4,XK (UniProt P51811),inactive: 0
5,WDR55 (UniProt Q9H6Y2),inactive: 0
6,YBX1 (UniProt P67809),inactive: 0
7,XPO1 (UniProt O14980),inactive: 0
8,WNK1 (UniProt Q9H4A3),inactive: 0
9,WDR24 (UniProt Q96S15),inactive: 0
10,ZC3H4 (UniProt Q9UPT8),inactive: 0
11,WDR47 (UniProt O94967),inactive: 0
12,ZC3H18 (UniProt Q86VM9),inactive: 0
13,WDR19 (UniProt Q8NEZ3),inactive: 0
14,XPO5 (UniProt Q9HAV4),inactive: 0
15,ZCRB1 (UniProt Q8TBF4),inactive: 0
16,ZBTB7A (UniProt O95365),inactive: 0
17,XRCC3 (UniProt O43542),inactive: 0
18,WDR3 (UniProt Q9UNX4),inactive: 0

row,Target,dose-dependent thermal stabilisation call
1,WDR61 (UniProt Q9GZS3),inactive: 0
2,YY1 (UniProt P25490),inactive: 0
3,ZC3HAV1 (UniProt Q7Z2W4),inactive: 0
4,WWC2 (UniProt Q6AWC2),inactive: 0
5,WDR45L (UniProt Q5MNZ6),inactive: 0
6,ZC3H7B (UniProt Q9UGR2),inactive: 0
7,ZFP91 (UniProt Q96JP5),inactive: 0
8,WDR5 (UniProt P61964),inactive: 0
9,ZNF330 (UniProt Q9Y3S2),inactive: 0
10,YME1L1 (UniProt Q96TA2),inactive: 0
11,ZFC3H1 (UniProt O60293),inactive: 0
12,ZNF259 (UniProt O75312),inactive: 0
13,ZNF326 (UniProt Q5BKZ1),inactive: 0
14,ZNF740 (UniProt Q8NDX6),inactive: 0
15,WDR41 (UniProt Q9HAD4),inactive: 0
16,YEATS4 (UniProt O95619),inactive: 0
17,ZEB1 (UniProt P37275),inactive: 0
18,ZFAND5 (UniProt O76080),inactive: 0

# Part of the list above in another layout.
row	Target	dose-dependent thermal stabilisation call
12	ZNF259 (UniProt O75312)	inactive: 0
13	ZNF326 (UniProt Q5BKZ1)	inactive: 0
14	ZNF740 (UniProt Q8NDX6)	inactive: 0
15	WDR41 (UniProt Q9HAD4)	inactive: 0
16	YEATS4 (UniProt O95619)	inactive: 0
17	ZEB1 (UniProt P37275)	inactive: 0
